Reference: PMC3663554

The chains behind the UniProt entries cited, without tags or fusion partners.
UniProt Q8WW43: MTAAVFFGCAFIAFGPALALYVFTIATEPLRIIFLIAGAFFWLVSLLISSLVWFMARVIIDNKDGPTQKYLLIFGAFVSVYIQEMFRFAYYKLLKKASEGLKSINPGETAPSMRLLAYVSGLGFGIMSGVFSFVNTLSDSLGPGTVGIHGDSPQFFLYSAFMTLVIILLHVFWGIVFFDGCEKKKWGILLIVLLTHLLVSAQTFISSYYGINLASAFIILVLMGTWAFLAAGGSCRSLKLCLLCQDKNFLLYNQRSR
UniProt P08962: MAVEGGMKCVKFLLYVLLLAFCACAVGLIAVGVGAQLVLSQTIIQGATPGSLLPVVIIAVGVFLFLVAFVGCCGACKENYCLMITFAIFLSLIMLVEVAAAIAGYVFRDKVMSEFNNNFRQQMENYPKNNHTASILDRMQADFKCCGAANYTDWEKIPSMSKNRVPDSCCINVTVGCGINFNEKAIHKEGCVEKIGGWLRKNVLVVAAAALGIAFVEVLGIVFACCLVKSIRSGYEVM
UniProt P35222: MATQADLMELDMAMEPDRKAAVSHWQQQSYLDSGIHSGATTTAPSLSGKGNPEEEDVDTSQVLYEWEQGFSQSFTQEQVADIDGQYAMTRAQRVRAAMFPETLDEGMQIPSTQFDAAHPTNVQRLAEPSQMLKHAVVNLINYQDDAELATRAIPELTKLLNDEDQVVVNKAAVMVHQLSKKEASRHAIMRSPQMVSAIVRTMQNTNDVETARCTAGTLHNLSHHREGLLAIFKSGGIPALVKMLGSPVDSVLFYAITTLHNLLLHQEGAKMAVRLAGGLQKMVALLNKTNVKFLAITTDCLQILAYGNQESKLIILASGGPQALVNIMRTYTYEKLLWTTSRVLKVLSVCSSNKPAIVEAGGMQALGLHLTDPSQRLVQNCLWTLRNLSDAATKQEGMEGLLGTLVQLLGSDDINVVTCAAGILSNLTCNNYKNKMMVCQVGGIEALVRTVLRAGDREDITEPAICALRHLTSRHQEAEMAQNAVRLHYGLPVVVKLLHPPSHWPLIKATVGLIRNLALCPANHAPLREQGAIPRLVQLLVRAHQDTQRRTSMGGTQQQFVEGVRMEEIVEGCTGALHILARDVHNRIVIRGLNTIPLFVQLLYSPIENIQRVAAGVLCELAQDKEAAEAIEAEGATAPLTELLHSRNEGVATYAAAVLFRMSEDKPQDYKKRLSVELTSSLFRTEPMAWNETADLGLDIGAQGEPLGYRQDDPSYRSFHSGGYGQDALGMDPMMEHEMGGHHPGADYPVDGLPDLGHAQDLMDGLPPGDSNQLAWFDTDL

B1: Tmp21 (protein, UniProt P49755 32-219)
chain: ISFHLPINSRKCLREEIHKDLLVTGAYEISDQSGGAGGLRSHLKITDSAGHILYSKEDATKGKFAFTTEDYDMFEVCFESKGTGRIPDQLVILDMKHGVEAKNYEEIAKVEKLKPLEVELRRLEDLSESIVNDFAYMKKREEEMRDTNESTNTRVLYFSIFSMFCLIGLATWQVFYLRRFFKAKKLIE
B2: signal peptide peptidase (SPP) (enzyme, UniProt Q8TCT9 1-377)
chain: MDSALSDPHNGSAEAGGPTNSTTRPPSTPEGIALAYGSLLLMALLPIFFGALRSVRCARGKNASDMPETITSRDAARFPIIASCTLLGLYLFFKIFSQEYINLLLSMYFFVLGILALSHTISPFMNKFFPASFPNRQYQLLFTQGSGENKEEIINYEFDTKDLVCLGLSSIVGVWYLLRKHWIANNLFGLAFSLNGVELLHLNNVSTGCILLGGLFIYDVFWVFGTNVMVTVAKSFEAPIKLVFPQDLLEKGLEANNFAMLGLGDVVIPGIFIALLLRFDISLKKNTHTYFYTSFAAYIFGLGLTIFIMHIFKHAQPALLYLVPACIGFPVLVALAKGEVTEMFSYEESNPKDPAAVTESKEGTEASASKGLEKKEK
B3: catenin δ-1 (protein, UniProt O60716 1-968)
chain: MDDSEVESTASILASVKEQEAQFEKLTRALEEERRHVSAQLERVRVSPQDANPLMANGTLTRRHQNGRFVGDADLERQKFSDLKLNGPQDHSHLLYSTIPRMQEPGQIVETYTEEDPEGAMSVVSVETSDDGTTRRTETTVKKVVKTVTTRTVQPVAMGPDGLPVDASSVSNNYIQTLGRDFRKNGNGGPGPYVGQAGTATLPRNFHYPPDGYSRHYEDGYPGGSDNYGSLSRVTRIEERYRPSMEGYRAPSRQDVYGPQPQVRVGGSSVDLHRFHPEPYGLEDDQRSMGYDDLDYGMMSDYGTARRTGTPSDPRRRLRSYEDMIGEEVPSDQYYWAPLAQHERGSLASLDSLRKGGPPPPNWRQPELPEVIAMLGFRLDAVKSNAAAYLQHLCYRNDKVKTDVRKLKGIPVLVGLLDHPKKEVHLGACGALKNISFGRDQDNKIAIKNCDGVPALVRLLRKARDMDLTEVITGTLWNLSSHDSIKMEIVDHALHALTDEVIIPHSGWEREPNEDCKPRHIEWESVLTNTAGCLRNVSSERSEARRKLRECDGLVDALIFIVQAEIGQKDSDSKLVENCVCLLRNLSYQVHREIPQAERYQEAAPNVANNTGPHAASCFGAKKGKDEWFSRGKKPIEDPANDTVDFPKRTSPARGYELLFQPEVVRIYISLLKESKTPAILEASAGAIQNLCAGRWTYGRYIRSALRQEKALSAIADLLTNEHERVVKAASGALRNLAVDARNKELIGKHAIPNLVKNLPGGQQNSSWNFSEDTVISILNTINEVIAENLEAAKKLRETQGIEKLVLINKSGNRSEKEVRAAALVLQTIWGYKELRKPLEKEGWKKSDFQVNLNNASRSQSSHSYDDSTLPLIDRNQKSDKKPDREEIQMSNMGSNTKSLDNNYSTPNERGDHNRTLDRSGDLGDMEPLKGTTPLMQDEGQESLEEELDVLVLDDEGGQVSYPSMQKI

These molecules were tested against TAP-PS2 (human presenilin 2 with N-terminal Protein G-TEV-SBP tandem affinity purification tag) (human) (UniProt P49810) (assay: affinity purification with mass spectrometry; TAP purification from HEK293F (IgG resin, TEV cleavage, WGA resin, streptavidin resin, biotin elution; CHAPSO/DDM); eluates trypsinized in solution; iTRAQ114 PS1 negative control, 115 PS1, 116 PS2 negative control, 117 PS2; control: biotin-saturated streptavidin resin).
Aph-1B (from UniProt Q8WW43 1-257) was tested, and the binding was “binds”.
In the case of CD63 (from UniProt P08962 1-238), the binding is reported as “binds”.
For “β-catenin (HEK293) (from UniProt P35222 1-781)”, the binding was “no binding”.
B1 was tested, and the binding was “binds”.
With B2 the binding was “binds”.
In the case of B3, the binding is reported as “no binding”.

Results are given in words; binding and its absence hold for the method and conditions named. Binding seen in cells or lysates may run through a third protein. Here binding means that the protein was enriched with, or labelled near, the bait; the list need not be complete. A no says only that the protein was not detected with the bait.
